Measured values published in patent publication US20170212117A1 (RANDOX LABORATORIES, published 2017).
Results are given in words; binding and its absence hold for the method and conditions named. Some binding calls cover weakened binding; strength is not graded here.

By UniProt entry, the sequences of proteins in these tests, tags left out. Where a name states a change or a piece, a line headed by the entry shows the natural chain unless it says otherwise.
UniProt P03973: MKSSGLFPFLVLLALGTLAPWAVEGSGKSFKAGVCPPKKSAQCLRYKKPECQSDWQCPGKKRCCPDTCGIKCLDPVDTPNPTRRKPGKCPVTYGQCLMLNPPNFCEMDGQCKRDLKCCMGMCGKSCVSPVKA

Legend:
[1] = molecular target: C-SLPI (C-terminal cleavage product of mature human SLPI, made by incubating recombinant SLPI with neutrophil elastase) (human) (UniProt P03973); test: hybridoma clone screening
[2] = molecular target: C-SLPI (C-terminal cleavage product of mature human SLPI, made by incubating recombinant SLPI with neutrophil elastase) (human) (UniProt P03973); test: sandwich ELISA, hybridoma supernatant as capture
[3] = molecular target: C-SLPI (C-terminal cleavage product of mature human SLPI, made by incubating recombinant SLPI with neutrophil elastase) (human) (UniProt P03973); test: sandwich ELISA on CF sputum samples, C5.5 supernatant as capture

Measured: binding

B1: C5.5 monoclonal antibody (supernatant of hybridoma clone C5.5) (antibody, V domains shown)
VH: EVQLVESGGGLVHPQGSLKLSCTASGFTFNTYDMNWVRQAPGKGLEWVARIRTKSYYYATYYADSVKDRFTISRDDSQTMLYLQLNNLKTEDTALYYCVRRSGNYGAMDYWGQGTSVTVSS
VL: QIVLTQSPAIMSASLGERVTMTCTASSSVSSSYLHWYQQKPGSSPKLWIYSTSNLASGVPARFSGSGSGTSYSLTISSMEAEDAATYYCHQYHRSPRTFGGGTKLEIK
notes: Used as cell-free hybridoma supernatant coated on the plate (capture antibody); also called C5.5 supernatant
binds: all assays above
